As a reminder, the EC50 is the concentration that produces a half-maximal response. Usually Ki stands for the dissociation constant of the complex between target and ligand, obtained from inhibition or displacement. A high value points to a looser hold on the target.

Amino acid sequences for entries named in this document (tags omitted). A change or cut given only in a name is not applied to a line headed by its entry.
UniProt Q9HC97: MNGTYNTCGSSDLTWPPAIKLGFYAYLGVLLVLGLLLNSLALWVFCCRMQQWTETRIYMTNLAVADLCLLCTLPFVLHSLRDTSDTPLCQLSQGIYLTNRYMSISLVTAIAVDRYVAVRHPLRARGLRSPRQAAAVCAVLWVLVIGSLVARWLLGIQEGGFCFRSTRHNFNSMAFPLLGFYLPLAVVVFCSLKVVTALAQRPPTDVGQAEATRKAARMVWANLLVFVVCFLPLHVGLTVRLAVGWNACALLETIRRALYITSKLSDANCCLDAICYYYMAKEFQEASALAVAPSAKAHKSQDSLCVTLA

These results are taken from ChEMBL document CHEMBL2424638, “6-Bromo-8-(4-[(3)H]methoxybenzamido)-4-oxo-4H-chromene-2-carboxylic Acid: a powerful tool for studying orphan G protein-coupled receptor GPR35” (J Med Chem, 2013).

The target in experiment [1] is T1, G-protein coupled receptor 35 (Homo sapiens, UniProt Q9HC97). Kind of experiment: Agonist activity at C-terminal beta-galactosidase tagged human recombinant GPR35 expressed in CHO cells after 90 mins by beta-arrestin recruitment assay. Format: cell-based. For orientation: Arrestin recruitment assays detect the binding of arrestin to an activated receptor.
Experiment [2] deals with T1, G-protein coupled receptor 35. Kind of experiment: biochemical. Format: cell-based, CHO.
Experiment [3] has the same target. Kind of experiment: Agonist activity at human GPR35 by Ca+2 release assay.

`NS(=O)(=O)c1cc(C(=O)O)c(NCc2ccco2)cc1Cl` [FUROSEMIDE]: the EC50 was found to be 11.2 µM in experiment [1] and 6.2 µM in experiment [3]. In addition, the inhibition constant Ki in experiment [2] was determined as 3.27 µM.
